This is one part of the list. Single values are uncertain, as repeats are few or missing.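 Cells were imaged in 1,536-well plates, and nuclei stained with an antibody against cleaved PARP were counted against all DNA-stained nuclei to give the apoptosis fraction. Screening doses were chosen to leave most cells alive, and resting and induced cleaved-PARP levels differ strongly between cell lines.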
These molecules were tested on MZ2-MEL (assay: cleaved PARP positive nuclei fraction relative to DMSO control; melanoma cells; higher = more apoptosis). Conditions: library dose: low library concentration; 72 h.
`O=C(Oc1ccc([N+](=O)[O-])cc1)N1CCC(C(O)(c2ccc3c(c2)OCO3)c2ccc3c(c2)OCO3)CC1` + Cn1cc(/C=C2\C(=O)Nc3cccnc32)c2ccccc21 [GW441756] (first compound 1 µM, partner dose 0.4 µM) was tested, and the “cleaved PARP positive nuclei fraction” value was 99%.
In the case of `CO[C@H]1C[C@@H]2CC[C@@H](C)[C@@](O)(O2)C(=O)C(=O)N2CCCC[C@H]2C(=O)O[C@H]([C@H](C)C[C@@H]2CC[C@@H](OCCO)[C@H](OC)C2)CC(=O)[C@H](C)/C=C(\C)[C@@H](O)[C@@H](OC)C(=O)[C@H](C)C[C@H](C)/C=C/C=C/C=C/1C` [everolimus] + Cc1cc(SCc2sc(-c3ccc(C(F)(F)F)c(F)c3)nc2C)ccc1OCC(=O)O [GW0742] (first compound 0.02 µM, partner dose 2 µM), the “cleaved PARP positive nuclei fraction” value is reported as 131%.
`C[C@]12O[C@H](C[C@]1(O)CO)n1c3ccccc3c3c4c(c5c6ccccc6n2c5c31)CNC4=O` [Lestaurtinib] + CO[C@@H]1[C@H](N(C)C(=O)c2ccccc2)C[C@H]2O[C@]1(C)n1c3ccccc3c3c4c(c5c6ccccc6n2c5c31)C(=O)NC4 [Midostaurin] (first compound 0.004 µM, partner dose 0.08 µM) was tested, and the “cleaved PARP positive nuclei fraction” value was 221%.
For `C[C@]12O[C@H](C[C@]1(O)CO)n1c3ccccc3c3c4c(c5c6ccccc6n2c5c31)CNC4=O` [Lestaurtinib] + NC(=O)Nc1cc(-c2cccc(F)c2)sc1C(=O)N[C@H]1CCCNC1 [AZD7762] (first compound 0.004 µM, partner dose 0.02 µM), the “cleaved PARP positive nuclei fraction” value was 63.8%.
With `C[C@]12O[C@H](C[C@]1(O)CO)n1c3ccccc3c3c4c(c5c6ccccc6n2c5c31)CNC4=O` [Lestaurtinib] + CN(NC(=O)CC(=O)NN(C)C(=S)c1ccccc1)C(=S)c1ccccc1 [STA4783] (first compound 0.004 µM, partner dose 0.006 µM) the “cleaved PARP positive nuclei fraction” value was 176%.
For `N#Cc1c(O)c2c(-c3ccc(-c4ccccc4O)cc3)csc2[nH]c1=O` + Cc1cc(SCc2sc(-c3ccc(C(F)(F)F)c(F)c3)nc2C)ccc1OCC(=O)O [GW0742] (first compound 2 µM, partner dose 2 µM), the “cleaved PARP positive nuclei fraction” value was 132%.
With `C[C@]12O[C@H](C[C@]1(O)CO)n1c3ccccc3c3c4c(c5c6ccccc6n2c5c31)CNC4=O` [Lestaurtinib] + O=C(O)C(=O)Nc1sc2c(c1C(=O)O)CCNC2 [TCS401] (first compound 0.004 µM, partner dose 1.66667 µM) the “cleaved PARP positive nuclei fraction” value was 27.5%.

The molecules below were run on MeWo in the same assay as above. Conditions: library dose: low library concentration; 72 h.
With `Oc1cc(-c2nc(-c3ccccc3)[nH]c2-c2ccncc2)ccc1Cl` + C/C(O)=C(\C#N)C(=O)Nc1cc(Br)ccc1Br [LFM-A13] (first compound 0.2 µM, partner dose 2 µM) the “cleaved PARP positive nuclei fraction” value was 142%.
With `C[As](C)SC[C@H](NC(=O)CC[C@H](N)C(=O)O)C(=O)NCC(=O)O` [Darinaparsin] + COc1ccc2c(c1)CCC1C2CCC2(C)C(NCCCCCCN3C(=O)C=CC3=O)CCC12 [U73122] (first compound 0.4 µM, partner dose 0.4 µM) the “cleaved PARP positive nuclei fraction” value was 206%.
With `CCc1ccc(CCOc2ccc(CC3SC(=O)NC3=O)cc2)nc1` (stereo not given) [pioglitazone] + O=C(Oc1ccc([N+](=O)[O-])cc1)N1CCC(C(O)(c2ccc3c(c2)OCO3)c2ccc3c(c2)OCO3)CC1 [JZL184] (first compound 2 µM, partner dose 1 µM) the “cleaved PARP positive nuclei fraction” value was 51.8%.
In the case of `CC1(C)NC(=O)N(c2ccc([N+](=O)[O-])c(C(F)(F)F)c2)C1=O` [nilutamide] + C/C(O)=C(\C#N)C(=O)Nc1cc(Br)ccc1Br [LFM-A13] (first compound 1 µM, partner dose 2 µM), the “cleaved PARP positive nuclei fraction” value is reported as 122%.
For `C[C@]12O[C@H](C[C@]1(O)CO)n1c3ccccc3c3c4c(c5c6ccccc6n2c5c31)CNC4=O` [Lestaurtinib] + O=C(Oc1ccc([N+](=O)[O-])cc1)N1CCC(C(O)(c2ccc3c(c2)OCO3)c2ccc3c(c2)OCO3)CC1 [JZL184] (first compound 0.004 µM, partner dose 1 µM), the “cleaved PARP positive nuclei fraction” value was 104%.
For `Oc1cc(-c2nc(-c3ccccc3)[nH]c2-c2ccncc2)ccc1Cl` + O=C(Oc1ccc([N+](=O)[O-])cc1)N1CCC(C(O)(c2ccc3c(c2)OCO3)c2ccc3c(c2)OCO3)CC1 [JZL184] (first compound 0.2 µM, partner dose 1 µM), the “cleaved PARP positive nuclei fraction” value was 29.1%.
For `Cc1cc(SCc2sc(-c3ccc(C(F)(F)F)c(F)c3)nc2C)ccc1OCC(=O)O` + c1cc(-c2cnn3cc(-c4ccc(OCCN5CCCCC5)cc4)cnc23)ccn1 [Dorsomorphin] (first compound 2 µM, partner dose 0.4 µM), the “cleaved PARP positive nuclei fraction” value was 54.1%.
With `C[C@]12O[C@H](C[C@]1(O)CO)n1c3ccccc3c3c4c(c5c6ccccc6n2c5c31)CNC4=O` [Lestaurtinib] + C[C@@H]1CCN(C(=O)CC#N)C[C@@H]1N(C)c1ncnc2[nH]ccc12 [CP690550] (first compound 0.004 µM, partner dose 1 µM) the “cleaved PARP positive nuclei fraction” value was 109%.
With `O=S(=O)(c1ccccc1)N(CC(F)(F)F)c1ccc(C(O)(C(F)(F)F)C(F)(F)F)cc1` + O=C(Oc1ccc([N+](=O)[O-])cc1)N1CCC(C(O)(c2ccc3c(c2)OCO3)c2ccc3c(c2)OCO3)CC1 [JZL184] (first compound 1.4 µM, partner dose 1 µM) the “cleaved PARP positive nuclei fraction” value was 51.3%.
In the case of `CCN(CC)CCCCNc1ncc2cc(-c3cc(OC)cc(OC)c3)c(NC(=O)NC(C)(C)C)nc2n1` + C/C(O)=C(\C#N)C(=O)Nc1cc(Br)ccc1Br [LFM-A13] (first compound 0.1 µM, partner dose 2 µM), the “cleaved PARP positive nuclei fraction” value is reported as 179%.
`CC(C)(C)c1cnc(CSc2cnc(NC(=O)C3CCNCC3)s2)o1` + O=C(Oc1ccc([N+](=O)[O-])cc1)N1CCC(C(O)(c2ccc3c(c2)OCO3)c2ccc3c(c2)OCO3)CC1 [JZL184] (first compound 0.01 µM, partner dose 1 µM) was tested, and the “cleaved PARP positive nuclei fraction” value was 66.6%.
With `C[As](C)SC[C@H](NC(=O)CC[C@H](N)C(=O)O)C(=O)NCC(=O)O` [Darinaparsin] + O=C(O)C(=O)Nc1sc2c(c1C(=O)O)CCNC2 [TCS401] (first compound 0.4 µM, partner dose 1.66667 µM) the “cleaved PARP positive nuclei fraction” value was 53.6%.
With `CCN(CC)CCCCNc1ncc2cc(-c3cc(OC)cc(OC)c3)c(NC(=O)NC(C)(C)C)nc2n1` + O=C(Oc1ccc([N+](=O)[O-])cc1)N1CCC(C(O)(c2ccc3c(c2)OCO3)c2ccc3c(c2)OCO3)CC1 [JZL184] (first compound 0.1 µM, partner dose 1 µM) the “cleaved PARP positive nuclei fraction” value was 55.7%.
With `C[As](C)SC[C@H](NC(=O)CC[C@H](N)C(=O)O)C(=O)NCC(=O)O` [Darinaparsin] + Cc1cc(SCc2sc(-c3ccc(C(F)(F)F)c(F)c3)nc2C)ccc1OCC(=O)O [GW0742] (first compound 0.4 µM, partner dose 2 µM) the “cleaved PARP positive nuclei fraction” value was 57%.
With `CCc1ccc(CCOc2ccc(CC3SC(=O)NC3=O)cc2)nc1` (stereo not given) [pioglitazone] + C/C(O)=C(\C#N)C(=O)Nc1cc(Br)ccc1Br [LFM-A13] (first compound 2 µM, partner dose 2 µM) the “cleaved PARP positive nuclei fraction” value was 67.6%.
For `CO[C@@H]1[C@H](N(C)C(=O)c2ccccc2)C[C@H]2O[C@]1(C)n1c3ccccc3c3c4c(c5c6ccccc6n2c5c31)C(=O)NC4` [Midostaurin] + C/C(O)=C(\C#N)C(=O)Nc1cc(Br)ccc1Br [LFM-A13] (first compound 0.08 µM, partner dose 2 µM), the “cleaved PARP positive nuclei fraction” value was 125%.
For `c1cc(-c2cnn3cc(-c4ccc(OCCN5CCCCC5)cc4)cnc23)ccn1` [Dorsomorphin] + O=C(Oc1ccc([N+](=O)[O-])cc1)N1CCC(C(O)(c2ccc3c(c2)OCO3)c2ccc3c(c2)OCO3)CC1 [JZL184] (first compound 0.4 µM, partner dose 1 µM), the “cleaved PARP positive nuclei fraction” value was 109%.
In the case of `Cc1cc(SCc2sc(-c3ccc(C(F)(F)F)c(F)c3)nc2C)ccc1OCC(=O)O` + Cn1cc(/C=C2\C(=O)Nc3cccnc32)c2ccccc21 [GW441756] (first compound 2 µM, partner dose 0.4 µM), the “cleaved PARP positive nuclei fraction” value is reported as 56.6%.
With `C[C@]12O[C@H](C[C@]1(O)CO)n1c3ccccc3c3c4c(c5c6ccccc6n2c5c31)CNC4=O` [Lestaurtinib] + C/C(O)=C(\C#N)C(=O)Nc1cc(Br)ccc1Br [LFM-A13] (first compound 0.004 µM, partner dose 2 µM) the “cleaved PARP positive nuclei fraction” value was 96%.
`C[As](C)SC[C@H](NC(=O)CC[C@H](N)C(=O)O)C(=O)NCC(=O)O` [Darinaparsin] + COc1cc2ncnc(Nc3ccc(Oc4ccccc4)cc3)c2cc1OC [SrcI1] (first compound 0.4 µM, partner dose 2 µM) was tested, and the “cleaved PARP positive nuclei fraction” value was 28.1%.
`Cn1nnc2c(C(N)=O)ncn2c1=O` [temozolomide] + O=C(Oc1ccc([N+](=O)[O-])cc1)N1CCC(C(O)(c2ccc3c(c2)OCO3)c2ccc3c(c2)OCO3)CC1 [JZL184] (first compound 2 µM, partner dose 1 µM) was tested, and the “cleaved PARP positive nuclei fraction” value was 106%.
For `C[C@]1(c2nc3c(C(N)=O)cccc3[nH]2)CCCN1` [Veliparib] + O=C(Oc1ccc([N+](=O)[O-])cc1)N1CCC(C(O)(c2ccc3c(c2)OCO3)c2ccc3c(c2)OCO3)CC1 [JZL184] (first compound 1.4 µM, partner dose 1 µM), the “cleaved PARP positive nuclei fraction” value was 26%.
`Nc1cccc2c1CN(C1CCC(=O)NC1=O)C2=O` (stereo not given) [lenalidomide] + O=C(Oc1ccc([N+](=O)[O-])cc1)N1CCC(C(O)(c2ccc3c(c2)OCO3)c2ccc3c(c2)OCO3)CC1 [JZL184] (first compound 1 µM, partner dose 1 µM) was tested, and the “cleaved PARP positive nuclei fraction” value was 102%.
